± gives the standard deviation of the averaged measurements. The effect of the compound repeats well; differences between the knockouts mostly do not.
Test system: MDA-MB-231
Assay: relative cell number vs DMSO control (72 h) (% of DMSO); higher = less growth inhibition (more cells)
Protocol: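 QMAP-Seq: a pool of 5 breast cancer cell lines (ZR-75-1, SKBR3, HCC-38, MDA-MB-231, BT-20), each carrying 12 doxycycline-inducible Cas9 sgRNA perturbations (11 knockouts plus non-targeting sgNT), was treated with compounds for 72 h at four 10-fold doses (10 nM-10 uM or 1 nM-1 uM range). Barcodes were amplified and sequenced, and cell number was interpolated from 293T spike-in standard curves. The result is expressed as % of the median of DMSO wells. Two biological replicates.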

C=CCc1cccc(/C=N/NC(=O)CN2CCN(Cc3ccccc3)CC2)c1O [PAC1]
Conditions | relative cell number
sgRNA knockout: sgATF3, 10 nM | 81.2 ± 19
sgRNA knockout: sgATF3, 100 nM | 69.6 ± 36
sgRNA knockout: sgATF3, 1000 nM | 82.7 ± 6.9
sgRNA knockout: sgATF3, 10000 nM | 27.2 ± 6.4
sgRNA knockout: sgATF4, 10 nM | 82.3 ± 46
sgRNA knockout: sgATF4, 100 nM | 104 ± 16
sgRNA knockout: sgATF4, 1000 nM | 77.3 ± 13
sgRNA knockout: sgATF4, 10000 nM | 18.6 ± 6.7
sgRNA knockout: sgATF6, 10 nM | 96.1 ± 11
sgRNA knockout: sgATF6, 100 nM | 99.5 ± 8.6
sgRNA knockout: sgATF6, 1000 nM | 98.1 ± 3.1
sgRNA knockout: sgATF6, 10000 nM | 30.1 ± 5.6
sgRNA knockout: sgATG7, 10 nM | 84.2 ± 30
sgRNA knockout: sgATG7, 100 nM | 85.3 ± 1.4
sgRNA knockout: sgATG7, 1000 nM | 79.2 ± 18
sgRNA knockout: sgATG7, 10000 nM | 26.6 ± 3.7
sgRNA knockout: sgERN1, 10 nM | 106 ± 18
sgRNA knockout: sgERN1, 100 nM | 133 ± 56
sgRNA knockout: sgERN1, 1000 nM | 85.8 ± 9.4
sgRNA knockout: sgERN1, 10000 nM | 24.86 ± 0.027
sgRNA knockout: sgHSF1, 10 nM | 116 ± 29
sgRNA knockout: sgHSF1, 100 nM | 112 ± 8.4
sgRNA knockout: sgHSF1, 1000 nM | 79.6 ± 12
sgRNA knockout: sgHSF1, 10000 nM | 29.6 ± 2.6
sgRNA knockout: sgHSF2, 10 nM | 75.3 ± 8.7
sgRNA knockout: sgHSF2, 100 nM | 102 ± 11
sgRNA knockout: sgHSF2, 1000 nM | 80.1 ± 11
sgRNA knockout: sgHSF2, 10000 nM | 27.6 ± 3.5
sgRNA knockout: sgKEAP1, 10 nM | 109 ± 40
sgRNA knockout: sgKEAP1, 100 nM | 103 ± 5.8
sgRNA knockout: sgKEAP1, 1000 nM | 107 ± 1.7
sgRNA knockout: sgKEAP1, 10000 nM | 26.5 ± 8.1
sgRNA knockout: sgNFE2L2, 10 nM | 109 ± 20
sgRNA knockout: sgNFE2L2, 100 nM | 67.2 ± 7.7
sgRNA knockout: sgNFE2L2, 1000 nM | 75.1 ± 14
sgRNA knockout: sgNFE2L2, 10000 nM | 29.1 ± 4.8
sgRNA knockout: sgSLC35F2, 10 nM | 93 ± 4
sgRNA knockout: sgSLC35F2, 100 nM | 91 ± 4.3
sgRNA knockout: sgSLC35F2, 1000 nM | 80 ± 4
sgRNA knockout: sgSLC35F2, 10000 nM | 31.4 ± 4
sgRNA knockout: sgXBP1, 10 nM | 91.4 ± 11
sgRNA knockout: sgXBP1, 100 nM | 92.9 ± 22
sgRNA knockout: sgXBP1, 1000 nM | 77.4 ± 9.5
sgRNA knockout: sgXBP1, 10000 nM | 24.2 ± 3.6

Clc1ccc(C2(c3ccc(-c4cn[nH]c4)cc3)CCNCC2)cc1 [AT7867]
Conditions | relative cell number
sgRNA knockout: sgATF3, 10 nM | 61.5 ± 23
sgRNA knockout: sgATF3, 100 nM | 86.3 ± 5.2
sgRNA knockout: sgATF3, 1000 nM | 59.6 ± 6.8
sgRNA knockout: sgATF3, 10000 nM | 17.7 ± 5.9
sgRNA knockout: sgATF4, 10 nM | 102 ± 27
sgRNA knockout: sgATF4, 100 nM | 111 ± 51
sgRNA knockout: sgATF4, 1000 nM | 59.6 ± 25
sgRNA knockout: sgATF4, 10000 nM | 18.4 ± 0.82
sgRNA knockout: sgATF6, 10 nM | 79.7 ± 8.8
sgRNA knockout: sgATF6, 100 nM | 68.2 ± 1.1
sgRNA knockout: sgATF6, 1000 nM | 40.2 ± 5.3
sgRNA knockout: sgATF6, 10000 nM | 15.2 ± 6.3
sgRNA knockout: sgATG7, 10 nM | 88.2 ± 11
sgRNA knockout: sgATG7, 100 nM | 90.3 ± 3.6
sgRNA knockout: sgATG7, 1000 nM | 44.4 ± 4.6
sgRNA knockout: sgATG7, 10000 nM | 17.5 ± 1
sgRNA knockout: sgERN1, 10 nM | 83.7 ± 7.6
sgRNA knockout: sgERN1, 100 nM | 94.6 ± 10
sgRNA knockout: sgERN1, 1000 nM | 54.3 ± 18
sgRNA knockout: sgERN1, 10000 nM | 14.7 ± 4.6
sgRNA knockout: sgHSF1, 10 nM | 85.7 ± 8.4
sgRNA knockout: sgHSF1, 100 nM | 90.77 ± 0.53
sgRNA knockout: sgHSF1, 1000 nM | 55.5 ± 16
sgRNA knockout: sgHSF1, 10000 nM | 15.1 ± 1.6
sgRNA knockout: sgHSF2, 10 nM | 97.7 ± 22
sgRNA knockout: sgHSF2, 100 nM | 86.07 ± 0.1
sgRNA knockout: sgHSF2, 1000 nM | 46.3 ± 12
sgRNA knockout: sgHSF2, 10000 nM | 17.4 ± 0.19
sgRNA knockout: sgKEAP1, 10 nM | 186 ± 100
sgRNA knockout: sgKEAP1, 100 nM | 94.6 ± 18
sgRNA knockout: sgKEAP1, 1000 nM | 59.8 ± 14
sgRNA knockout: sgKEAP1, 10000 nM | 16.3 ± 1.1
sgRNA knockout: sgNFE2L2, 10 nM | 105 ± 12
sgRNA knockout: sgNFE2L2, 100 nM | 77.3 ± 17
sgRNA knockout: sgNFE2L2, 1000 nM | 47 ± 1.7
sgRNA knockout: sgNFE2L2, 10000 nM | 16.7 ± 1.4
sgRNA knockout: sgSLC35F2, 10 nM | 86.6 ± 21
sgRNA knockout: sgSLC35F2, 100 nM | 112 ± 1.9
sgRNA knockout: sgSLC35F2, 1000 nM | 34 ± 6.2
sgRNA knockout: sgSLC35F2, 10000 nM | 17 ± 2.1
sgRNA knockout: sgXBP1, 10 nM | 81.2 ± 12
sgRNA knockout: sgXBP1, 100 nM | 102 ± 3.7
sgRNA knockout: sgXBP1, 1000 nM | 42.1 ± 1.1
sgRNA knockout: sgXBP1, 10000 nM | 13.7 ± 3.6

COc1cccc2c1C(=O)c1c(O)c3c(c(O)c1C2=O)C[C@@](O)(C(=O)CO)C[C@@H]3O[C@H]1C[C@H](N)[C@H](O)[C@H](C)O1 [Doxorubicin]
Conditions | relative cell number
sgRNA knockout: sgATF3, 10 nM | 79.7 ± 6.3
sgRNA knockout: sgATF3, 100 nM | 20.9 ± 1.6
sgRNA knockout: sgATF3, 1000 nM | 23.4 ± 2.6
sgRNA knockout: sgATF3, 10000 nM | 6.23 ± 2.8
sgRNA knockout: sgATF4, 10 nM | 98.4 ± 13
sgRNA knockout: sgATF4, 100 nM | 27.8 ± 6
sgRNA knockout: sgATF4, 1000 nM | 22.8 ± 0.51
sgRNA knockout: sgATF4, 10000 nM | 15.6 ± 9.2
sgRNA knockout: sgATF6, 10 nM | 74.5 ± 4.9
sgRNA knockout: sgATF6, 100 nM | 31 ± 16
sgRNA knockout: sgATF6, 1000 nM | 20.3 ± 7.4
sgRNA knockout: sgATF6, 10000 nM | 11.3 ± 7.1
sgRNA knockout: sgATG7, 10 nM | 68.4 ± 1.9
sgRNA knockout: sgATG7, 100 nM | 30.1 ± 3.7
sgRNA knockout: sgATG7, 1000 nM | 16.7 ± 3.8
sgRNA knockout: sgATG7, 10000 nM | 7.94 ± 3.5
sgRNA knockout: sgERN1, 10 nM | 60.7 ± 7.9
sgRNA knockout: sgERN1, 100 nM | 26.2 ± 1.3
sgRNA knockout: sgERN1, 1000 nM | 14 ± 1.7
sgRNA knockout: sgERN1, 10000 nM | 8.1 ± 1.7
sgRNA knockout: sgHSF1, 10 nM | 67.1 ± 12
sgRNA knockout: sgHSF1, 100 nM | 22.7 ± 2.6
sgRNA knockout: sgHSF1, 1000 nM | 16.8 ± 0.96
sgRNA knockout: sgHSF1, 10000 nM | 11.12 ± 0.013
sgRNA knockout: sgHSF2, 10 nM | 95.4 ± 6.8
sgRNA knockout: sgHSF2, 100 nM | 17.3 ± 4.3
sgRNA knockout: sgHSF2, 1000 nM | 21 ± 2.3
sgRNA knockout: sgHSF2, 10000 nM | 7.83 ± 5
sgRNA knockout: sgKEAP1, 10 nM | 74.6 ± 6.5
sgRNA knockout: sgKEAP1, 100 nM | 34.2 ± 3.9
sgRNA knockout: sgKEAP1, 1000 nM | 20.4 ± 6.6
sgRNA knockout: sgKEAP1, 10000 nM | 8.64 ± 0.95
sgRNA knockout: sgNFE2L2, 10 nM | 66.4 ± 20
sgRNA knockout: sgNFE2L2, 100 nM | 21.96 ± 0.048
sgRNA knockout: sgNFE2L2, 1000 nM | 13.1 ± 0.85
sgRNA knockout: sgNFE2L2, 10000 nM | 7.98 ± 2.4
sgRNA knockout: sgSLC35F2, 10 nM | 63.1 ± 15
sgRNA knockout: sgSLC35F2, 100 nM | 23.5 ± 1.9
sgRNA knockout: sgSLC35F2, 1000 nM | 16.8 ± 6.3
sgRNA knockout: sgSLC35F2, 10000 nM | 6.4 ± 3
sgRNA knockout: sgXBP1, 10 nM | 72.6 ± 20
sgRNA knockout: sgXBP1, 100 nM | 25.5 ± 8.4
sgRNA knockout: sgXBP1, 1000 nM | 16.5 ± 5.2
sgRNA knockout: sgXBP1, 10000 nM | 7.71 ± 1.9
